Source: PMC9843532
Results are given in words; binding and its absence hold for the method and conditions named. Binding seen in cells or lysates may run through a third protein. Some entries that bind do so weakly or less than the wild type.

Target: T1, LNK (human (endogenous in primary erythroblasts)), Q9UQQ2
T1 chain: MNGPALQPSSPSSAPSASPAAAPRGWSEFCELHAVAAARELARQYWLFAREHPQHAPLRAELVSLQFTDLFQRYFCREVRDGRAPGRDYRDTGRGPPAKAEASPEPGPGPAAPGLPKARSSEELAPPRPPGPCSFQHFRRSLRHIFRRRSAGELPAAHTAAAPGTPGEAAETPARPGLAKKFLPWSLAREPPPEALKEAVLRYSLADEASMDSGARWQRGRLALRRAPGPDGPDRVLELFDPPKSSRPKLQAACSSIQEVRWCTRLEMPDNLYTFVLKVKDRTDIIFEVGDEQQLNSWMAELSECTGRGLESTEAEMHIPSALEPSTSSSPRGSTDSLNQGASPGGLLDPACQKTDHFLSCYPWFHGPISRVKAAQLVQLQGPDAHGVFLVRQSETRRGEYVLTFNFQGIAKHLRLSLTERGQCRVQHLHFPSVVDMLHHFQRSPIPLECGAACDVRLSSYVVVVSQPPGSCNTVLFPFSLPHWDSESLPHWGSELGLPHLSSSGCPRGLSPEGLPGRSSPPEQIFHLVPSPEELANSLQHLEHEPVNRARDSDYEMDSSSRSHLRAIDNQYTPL
Test: co-IP; endogenous proteins in lysates of human primary erythroblasts after DMSO or 0.5 μM ACY-1215 exposure; IP buffer with 1% NP40, 150 mM NaCl, 5 mM EDTA, Tris HCl pH 8; antibody against 14-3-3ζ or LNK (2 μg) overnight at 4°C, μMACS Protein G Microbeads; partner detected by immunoblot
Conditions: remark: other sources report otherwise

B1: JAK2, O60674 1-1132 (protein)
chain: MGMACLTMTEMEGTSTSSIYQNGDISGNANSMKQIDPVLQVYLYHSLGKSEADYLTFPSGEYVAEEICIAASKACGITPVYHNMFALMSETERIWYPPNHVFHIDESTRHNVLYRIRFYFPRWYCSGSNRAYRHGISRGAEAPLLDDFVMSYLFAQWRHDFVHGWIKVPVTHETQEECLGMAVLDMMRIAKENDQTPLAIYNSISYKTFLPKCIRAKIQDYHILTRKRIRYRFRRFIQQFSQCKATARNLKLKYLINLETLQSAFYTEKFEVKEPGSGPSGEEIFATIIITGNGGIQWSRGKHKESETLTEQDLQLYCDFPNIIDVSIKQANQEGSNESRVVTIHKQDGKNLEIELSSLREALSFVSLIDGYYRLTADAHHYLCKEVAPPAVLENIQSNCHGPISMDFAISKLKKAGNQTGLYVLRCSPKDFNKYFLTFAVERENVIEYKHCLITKNENEEYNLSGTKKNFSSLKDLLNCYQMETVRSDNIIFQFTKCCPPKPKDKSNLLVFRTNGVSDVPTSPTLQRPTHMNQMVFHKIRNEDLIFNESLGQGTFTKIFKGVRREVGDYGQLHETEVLLKVLDKAHRNYSESFFEAASMMSKLSHKHLVLNYGVCVCGDENILVQEFVKFGSLDTYLKKNKNCINILWKLEVAKQLAWAMHFLEENTLIHGNVCAKNILLIREEDRKTGNPPFIKLSDPGISITVLPKDILQERIPWVPPECIENPKNLNLATDKWSFGTTLWEICSGGDKPLSALDSQRKLQFYEDRHQLPAPKWAELANLINNCMDYEPDFRPSFRAIIRDLNSLFTPDYELLTENDMLPNMRIGALGFSGAFEDRDPTQFEERHLKFLQQLGKGNFGSVEMCRYDPLQDNTGEVVAVKKLQHSTEEHLRDFEREIEILKSLQHDNIVKYKGVCYSAGRRNLKLIMEYLPYGSLRDYLQKHKERIDHIKLLQYTSQICKGMEYLGTKRYIHRDLATRNILVENENRVKIGDFGLTKVLPQDKEYYKVKEPGESPIFWYAPESLTESKFSVASDVWSFGVVLYELFTYIEKSKSPPAEFMRMIGNDKQGQMIVFHLIELLKNNGRLPRPDGCPDEIYMIMTECWNNNVNQRPSFRDLALRVDQIRDNMAG
binding: binds
